Data from PubChem BioAssay AID2685 (National Center for Advancing Translational Sciences (NCATS), 2010).
This is one part of the list. Shown are side measurements of this screen, not its main read-out; they come without a call. Compounds called inactive in the main read-out are mostly missing here. Words in brackets tell the shape of the fitted curve; partial curves, single points and poor fits give uncertain potencies.

Test: qHTS Assay for Lipid Storage Modulators in Drosophila S3 Cells;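 as to cell number change: cells counted by Cell Tracker Red CMTPX staining in the red channel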
Conditions: BODIPY lipid droplet fluorescence, 18-24 h; for cell number change: measured here: cell count max response, cells fed with added oleic acid
Method in brief: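 Laser-scanning cytometry quantifies lipid droplet accumulation (500–530 nm total intensity; droplet/cell object ratio) in oleic acid-fed (400 uM added) Drosophila S3 cells treated with a concentration series. 20 uM Triacsin C defined 100% inhibition.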

[1] = measured here: lipid fluorescence (Fed channel) AC50, cells fed with added oleic acid
[2] = measured here: cell number channel AC50, cells fed with added oleic acid

Compound	cell number change	AC50 [1]	AC50 [2]
CC(=O)c1cccc(NC(=O)/C(=C\c2cccnc2)NC(=O)c2ccc(C)cc2)c1	1.74%	29.1 µM [rising, single point]	–
CCCC(=O)c1ccc(N2CCN(C(=O)OCC)CC2)c(F)c1	-11.1%	–	0.00461 µM [falling, full curve, poor fit]
O=C(CNC(=O)c1cccc(Br)c1)N/N=C/c1cccnc1	12.8%	–	–
COc1ccc(NC(=O)C(Br)C(C)C)cc1 (stereo unspecified)	-37.6%	–	25.9 µM [falling, single point]
CCOc1ccc(C(F)(F)F)cc1NC(=O)COc1ccc(C(F)(F)F)cc1[N+](=O)[O-]	–	0.116 µM [rising, full curve, poor fit]	0.231 µM [rising, full curve]
O=C(CSCc1ccc(Cl)cc1)N/N=C/c1ccccc1	-50.5%	–	29.1 µM [falling, single point]
c1cncc(CNc2c3c(nc4nnnn24)CCCC3)c1	-3.35%	2.59 µM [rising, single point]	–
CC(C)CC(COCc1ccc(C(F)(F)F)cc1)N1CCN(C(=O)c2ccc(C(F)(F)F)cc2)CCC1=O (stereo unspecified)	32.3%	–	7.31 µM [rising, partial curve]
Cc1c(NS(=O)(=O)c2ccc(C(=O)NCc3ccccc3)cc2)c(=O)n(-c2ccccc2)n1C	41.7%	6.51 µM [rising, single point]	2.31 µM [rising, full curve]
Cc1ccc(C)c(S(=O)(=O)N2CCCC2CNC(=O)C(=O)NCc2cccs2)c1 (stereo unspecified)	53.5%	–	10.3 µM [rising, partial curve, poor fit]
Cc1ccnc2nc(C(=O)OC(C)C(=O)NCc3ccccc3)nn12 (stereo unspecified)	36.4%	2.06 µM [rising, partial curve, poor fit]	0.259 µM [rising, partial curve]
Cc1cccc(N2CCN(C(=O)C3CCN(S(=O)(=O)c4cccc5cccnc45)CC3)CC2C)c1 (stereo unspecified)	–	0.13 µM [falling, full curve, poor fit]	–
Cc1cc(N2C(=O)C(=O)/C(=C(/O)c3ccc(F)cc3)C2c2ccc(Cl)cc2)no1 (stereo unspecified)	61.1%	6.51 µM [falling, single point]	6.51 µM [falling, single point]
O=C(N/N=C/C=C\c1ccccc1[N+](=O)[O-])c1ccco1	39.8%	–	1.84 µM [rising, full curve]
CCOc1cc(S(=O)(=O)NCc2ccc(OC)cc2)c(OCC)cc1-n1cnnn1	-18.2%	18.4 µM [falling, partial curve]	–

2 entries drawn at random from those above, as already listed:
Compound	cell number change	AC50 [1]	AC50 [2]
CC(C)CC(COCc1ccc(C(F)(F)F)cc1)N1CCN(C(=O)c2ccc(C(F)(F)F)cc2)CCC1=O (stereo unspecified)	32.3%	–	7.31 µM [rising, partial curve]
COc1ccc(NC(=O)C(Br)C(C)C)cc1 (stereo unspecified)	-37.6%	–	25.9 µM [falling, single point]
